# The inconclusive results got no clear call from the source; some entries with a clear call stand among them for comparison. Potencies of inconclusive entries are doubtful fits and often do not repeat. Active and inactive are the calls of the source. Calls come from the whole dose curve; as a rule, active = well fitted cell-killing curve with a large enough effect; inconclusive = small, poorly fitted or top-dose-only effect, or effect the other way; inactive = no such curve, though single readings can be large or run the other way. Where a SMILES comes first, the peptide text is derived from it. Residues, ends and D or L forms follow the SMILES beside them. [ ]: non-standard residue; d: D form. The star is where a group is joined. Sta = CC(C)C[C@H](N)[C@@H](O)CC(=O)O; Isovaleryl = CC(C)CC(=O)*
# Assay: Quantitative High-Throughput drug screen in 47 multiple myeloma cell lines against the NCATS MIPE library collection: FR4_PLB cell viability assay (AID 1918924; note: nearly all actives have a fitted effect of over 35% in size)
# Conditions: FR4_PLB myeloma cells viability, CellTiter-Glo ATP, 48 h; series mostly up to 45.8 µM
# Method in brief: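 Myeloma cells (500 per well) were exposed to MIPE 4.0 compounds by pin transfer and incubated 48 hours at 37C, 5% CO2. Viability was read as ATP by CellTiter-Glo luminescence, normalised to DMSO (100%) and media-only (0%) wells.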
# Potency is the fitted concentration of half-maximal effect.
row,Compound,Potency
1,CC(C)C1CCC(C(=O)N[C@H](Cc2ccccc2)C(=O)O)CC1 (stereo partly drawn),"inconclusive: 0.0021 µM [cytotoxic, full curve, poor fit]"
2,Cn1cnc2c1c(=O)[nH]c(=O)n2C,active: 26.4 µM
3,Clc1ccc(C(Cn2ccnc2)OCc2ccsc2Cl)c(Cl)c1 (stereo not drawn),"inconclusive: 26.4 µM [cytotoxic, single point]"
4,CCC(=O)NC[C@H](Cc1ccc(OCCc2nc(-c3ccccc3)oc2C)cc1)NC(C)=CC(=O)c1ccc(C(F)(F)F)cc1,"inconclusive: 37.2 µM [cytotoxic, single point]"
5,CCCCCCCCCCCC(CC1OC(=O)C1CCCCCC)OC(=O)C(CC(C)C)NC=O (stereo not drawn),"inconclusive: 26.4 µM [cytotoxic, single point]"
6,CC1CC2C3CCC4=CC(=O)C=C[C@]4(C)[C@@]3(F)[C@@H](O)C[C@]2(C)[C@@]1(O)C(=O)CO (stereo partly drawn),"inconclusive: 0.0209 µM [cytotoxic, full curve, poor fit]"
7,Cn1cc(C=C2C(=O)Nc3cccnc32)c2ccccc21,inactive
8,Nc1nc(OCc2ccccc2)c2[nH]cnc2n1,inactive
9,C=CCc1cc(OC)c(O)c(C(=O)NCCO)c1,inactive
10,COCCCOc1cc(C[C@@H](C[C@H](N)[C@@H](O)C[C@H](C(=O)NCC(C)(C)C(N)=O)C(C)C)C(C)C)ccc1OC,"inconclusive: 0.0053 µM [rising, full curve, poor fit]"
11,COC(=O)[C@H](Cc1ccccc1)NC(=O)[C@@H](N)CC(=O)O (H-Asp-Phe-OMe),inactive
12,O=C(C=Cc1cccnc1)NCCCCC1CCN(C(=O)c2ccccc2)CC1,"inconclusive: 0.0166 µM [rising, full curve]"
13,C[N+]1(C)[C@@H]2CC(OC(=O)[C@H](CO)c3ccccc3)C[C@H]1[C@H]1O[C@@H]12 (stereo partly drawn),inactive
14,Cc1ncc([N+](=O)[O-])n1CCO,inconclusive: 0.001 µM
15,CNS(=O)(=O)Cc1ccc2[nH]cc(CCN(C)C)c2c1,inactive
16,CC[C@H](NC(C)C)[C@H](O)c1ccc(O)c2[nH]c(=O)ccc12,inactive
17,CC(C)Nc1cc(C(F)(F)F)cc2nc(NC(=O)c3cccnc3)nn12,"inconclusive: 7.43 µM [cytotoxic, full curve, poor fit]"
18,CN[C@@H](C)[C@H]1[C@H](O)C[C@@]2(C)[C@@H]3CC[C@H]4C(C)(C)[C@@H](NC)CC[C@@]45C[C@@]35CC[C@]12C,"inconclusive: 11.8 µM [cytotoxic, single point]"
19,CCn1cc(C(=O)O)c(=O)c2cc(F)c(N3CCNCC3)nc21,inconclusive: 0.001 µM

# Single values from the results shown:
# Value for CC[C@H](NC(C)C)[C@H](O)c1ccc(O)c2[nH]c(=O)ccc12 under Potency: inactive
# Value for CC1CC2C3CCC4=CC(=O)C=C[C@]4(C)[C@@]3(F)[C@@H](O)C[C@]2(C)[C@@]1(O)C(=O)CO (stereo partly drawn) under Potency: inconclusive: 0.0209 µM [cytotoxic, full curve, poor fit]

# Later entries:

row,Compound,Potency
1,CC[C@H](C=C[C@@H](C)[C@H]1CC[C@H]2[C@@H]3CC=C4C[C@@H](O)CC[C@]4(C)[C@@H]3CC[C@]12C)C(C)C,"inconclusive: 12.9 µM [cytotoxic, partial curve, poor fit]"
2,CC1COc2c(N3CCN(C)CC3)c(F)cc3c(=O)c(C(=O)O)cn1c23 (stereo not drawn),inactive
3,Cc1cccc(-c2nn(C(=S)Nc3ccccc3)cc2-c2ccnc3ccccc23)n1,inactive
4,O=C(O)c1ccc(-c2c[nH]c3ncc(-c4ccccc4)cc23)cc1C1CCCC1,"inconclusive: 16.6 µM [rising, partial curve, poor fit]"
5,CN1C(C(=O)Nc2ccccn2)=C(O)c2ccccc2S1(=O)=O,"inconclusive: 20.9 µM [rising, single point]"
6,COC(=O)N1CCN(Cc2cccc(NC(=O)Nc3ccc(C)nc3)c2F)CC1,"inconclusive: 23.5 µM [cytotoxic, single point]"
7,Cc1nccn1CC1CCc2c(c3ccccc3n2C)C1=O (stereo not drawn),inactive
8,CC[C@H]1OC(=O)[C@H](C)[C@@H](O[C@H]2C[C@@](C)(OC)[C@@H](O)[C@H](C)O2)[C@H](C)[C@@H](O[C@@H]2O[C@H](C)C[C@H](N(C)C)[C@H]2O)[C@](C)(O)C[C@H](C)C(=NOCOCCOC)[C@H](C)[C@@H](O)[C@]1(C)O,inactive
9,CC1(C)CCC[C@@]2(C)[C@@H]1CC[C@@]1(C)OC(=O)C[C@H]21,active: 14.8 µM
10,COc1ncnc(NS(=O)(=O)c2ccc(N)cc2)c1OC,inactive
11,C[C@@]1(c2cc(-c3cncnc3)c(F)cc2F)CCSC(N)=N1,"inconclusive: 23.5 µM [cytotoxic, partial curve, poor fit]"
12,COc1ccc(Nc2nccc(NCCO)n2)cc1,"inconclusive: 0.0021 µM [rising, full curve, poor fit]"
13,c1ccc2c(-c3cnn4cc(-c5ccc(N6CCNCC6)cc5)cnc34)ccnc2c1,"inconclusive: 6.62 µM [cytotoxic, full curve, poor fit]"
14,OC[C@H]1O[C@@H](Oc2ccc(O)cc2)[C@H](O)[C@@H](O)[C@H]1O,"inconclusive: 0.0021 µM [rising, full curve, poor fit]"
15,Cc1ccc(O)c(C(CCN(C(C)C)C(C)C)c2ccccc2)c1 (stereo not drawn),inactive
16,CCC[C@H](N[C@@H](C)C(=O)N1[C@@H]2CCCC[C@H]2C[C@H]1C(=O)O)C(=O)OCC,inactive
17,CC1(C)[C@H](C(=O)O)N2C(=O)C[C@H]2S1(=O)=O,inactive
18,CC(C)CC(=O)N[C@H](C(=O)N[C@H](C(=O)N[C@@H](CC(C)C)[C@@H](O)CC(=O)N[C@@H](C)C(=O)N[C@@H](CC(C)C)[C@@H](O)CC(=O)O)C(C)C)C(C)C (Isovaleryl-VV[Sta]A[Sta]-OH),inactive
19,O=C(O)C1=CC(O)C(O)[C@H](O)C1 (stereo partly drawn),inactive
